According to patent US20260221482A1, “REDOX FLOW BATTERY” (CAMBRIDGE ENTERPRISE LIMITED, priority 2023, published 2026):

Assays:
[1] = Galvanostatic cycling of full flow cell vs 4-hydroxy-TEMPO under N2; settings: for capacity fade rate / capacity retention over the first five cycles: N2; for Coulombic efficiencies: N2, 2 mA cm^−2
[2] = Galvanostatic cycling in air (25 mM and 50 mM full cells); settings: five cycles in air, 5 mA cm^−2
[3] = Extended galvanostatic cycling flow cell studies at 250 mM
[4] = 10 mM in 100 mM NaCl, 20 mM 4-hydroxy-TEMPO, N2, five charge-discharge cycles, 2 mA cm^−2
[5] = 5 cycles air, 20 mA cm^−2, after the 40 mA cm^−2 step
[6] = air, 30 mA cm^−2 (200 cycles for 11, 100 for 17)
[7] = air, 40 mA cm^−2 (111 cycles for 11, 67 for 17)
[8] = 10 mM in 100 mM NaCl, 20 mM 4-hydroxy-TEMPO

For `C[N+](C)(C)CCC[n+]1ccc(-c2cc[n+](CCC[N+](C)(C)C)cc2)cc1` [Compound 10], which Coulombic efficiency [1, 4] is on record?
The Coulombic efficiency was 80.5 ± 0.3%.

What does the source list for `C[N+](C)(C)CCC[n+]1ccc(-c2ccc(-c3cc[n+](CCC[N+](C)(C)C)cc3)cc2)cc1` [Compound 11]?
Coulombic efficiency ([1]; 1 mM, N2, 0.2 mA cm^−2): 18%; capacity fade rate ([1]; 5 mM): 9.64 % per cycle; Coulombic efficiency ([1]; 5 mM, N2, 1 mA cm^−2): 74%; Coulombic efficiency [1, 4]: 77% and 76.8 ± 0.3%; capacity fade rate ([1]; 10 mM): 0.01 % per cycle; capacity upon introduction of air ([2]; 25 mM in 500 mM NaCl): fell sharply; capacity upon introduction of air ([2]; 50 mM in 500 mM NaCl): remained almost unchanged; Coulombic efficiency ([3]; 5 cycles N2, 20 mA cm^−2): 98.87 ± 0.90%; Coulombic efficiency [3, 5]: 94.52 ± 0.50%; Coulombic efficiency ([3]; 15 cycles air, 20 mA cm^−2): 87.53 ± 0.13%; Coulombic efficiency [3, 6]: 96.64 ± 0.31%; Coulombic efficiency [3, 7]: 93.62 ± 0.46%; initial jump in capacity upon exposure to air ([3]; first 130 cycles): 12.337%

For `C[N+](C)(C)CCC[n+]1ccc(-c2ccc3cc(-c4cc[n+](CCC[N+](C)(C)C)cc4)ccc3c2)cc1` [Compound 13], which Coulombic efficiency [1, 4] is on record?
The Coulombic efficiency was 74.2 ± 2.7%.

With `C[N+](C)(C)CCC[n+]1ccc(-c2ccc(-c3cc[n+](CCC[N+](C)(C)C)cc3)s2)cc1` [Compound 17] as the compound, how does the Coulombic efficiencies [1, 8] read?
The Coulombic efficiencies was 78.6±0.3.

And the “capacity retention over the first five cycles” value ([1]; 10 mM)?
The value was “about 99%”.

What about the “capacity upon introduction of air” value ([2]; 50 mM in 500 mM NaCl) of the same compound?
The value was “remained almost unchanged”.

And the Coulombic efficiency ([3]; 5 cycles N2, 20 mA cm^−2)?
The Coulombic efficiency was 97.55 ± 0.18%.

And the Coulombic efficiency [3, 5]?
Its Coulombic efficiency is 96.78 ± 0.69%.

What about the Coulombic efficiency ([3]; 15 cycles air, 20 mA cm^−2) of the same compound?
Its Coulombic efficiency is 96.49 ± 0.71%.

And the Coulombic efficiency [3, 6]?
Its Coulombic efficiency is 97.89 ± 1.17%.

And the Coulombic efficiency [3, 7]?
The Coulombic efficiency was 98.59 ± 2.87%.

For `C[N+](C)(C)CCC[n+]1ccc(-c2ccc(-c3ccc(-c4cc[n+](CCC[N+](C)(C)C)cc4)s3)s2)cc1` [Compound 18], which Coulombic efficiencies [1, 8] is on record?
The Coulombic efficiencies was 79.7±2.8.

And the “capacity retention over the first five cycles” value ([1]; 10 mM)?
The value was “about 92%”.

“And” between values parts separate entries of the source, which are not always exact repeats. Identical values can stand only once.
